Data as given in patent US20100298434A1, “NEUROPROTECTION AND PREVENTION OF DOPAMINERGIC CELL DEATH BY TARGETING NUR77 TRANSLOCATION” (priority 2009, published 2010).
For at least one compound, name, drawing or mass did not settle the structure.

Key:
Nur77 = Nur77 subcellular distribution (nuclei-cytoplasmic fractioning, Western blot) in PC12 cells; format: cell-based, rat; settings: MPP+ 5 mM, co-incubation with DHA 10^−6 M
Method: PC12 cells were obtained from ATCC CRL 1721 (VA, USA) and were grown in phenol red-free RPMI 1640 medium supplemented with 5% fetal calf serum (FCS), 10% horse serum and gentamicin (50 μg/ml). They were cultured on Primaria 6-well plates (BD Falcon, Ontario, Canada) for RT-PCR experiments and immunoblotting; on Primaria 96-wells plates for LDH cytoxicity experiments and finally on poly-L-lysine-coated circular glass coverslips for immunocytofluorescence assays. Cells were fed fresh medium every 3 days and maintained at 37° C. in a humidified 5% CO2 atmosphere. […] Control conditions were without toxin. […] For the present study, kinetic time periods were: 0 h, 3 h, 6 h, 9 h, 12 h and 24 h. After each experiment, culture medium was harvested for cytotoxicity detection and cells were collected for RT-PCR and ICF/Fractioning (Gelinas & Martinoli 2002; Gagne et al. 2003; Gelinas et al. 2004; Chiasson et al. 2006).
PC12 cells were grown and treated in 6-wells plates. We used a nuclear extraction kit (Active Motif, Carlsbad, Calif.) to separate cytoplasmic protein content from nuclear protein content. Briefly, cells were washed in wells with a mixture of PBS and phosphatase inhibitors, and then harvested in centrifuge tubes. […]
Equal amounts of nuclei or cytoplasmic protein fractions were loaded onto a 10% polyacrylamide-SDS gel. […] Quantitative analysis was performed with the Fluor Chem SP software.

[1] = tested on: dopaminergic markers into the striatum and the substantia nigra; settings: diet rich in DHA; cited from earlier work

SMILES: CC/C=C\C/C=C\C/C=C\C/C=C\C/C=C\C/C=C\CCC(=O)O [DHA, docosahexaenoic acid]
- MPP+-induced translocation of Nur77 from the nucleus to the cytosol (Nur77): blocked
- action against MPTP-induced toxicity (decrease of dopaminergic markers) [1]: neuroprotective action
